# Literature values, collected in US20210252115A1, “INHIBITION OF CATALYTIC SITE COMMON TO MULTIPLE 3 ALPHA-OXIDOREDUCTASES FOR TREATMENT OF PROSTATE CANCER” (Health Research, Inc., priority 2016, published 2021).
# At least one compound was matched to its structure with a doubt left.
# Settings: CaP, background statement; cited from earlier work
structure (smiles),measurement,value
C[C@]12CC[C@H](O)CC1=CC[C@@H]1[C@@H]2CC[C@]2(C)C(c3cccnc3)=CC[C@@H]12 [abiraterone],intratumoral DHT levels,decrease
